From publication PMC7037732, “Synthesis of Combretastatin A-4 and 3′-Aminocombretastatin A-4 derivatives with Aminoacid Containing Pendants and Study of their Interaction with Tubulin and as Downregulators of the VEGF, hTERT and c-Myc Gene Expression” (Molecules, 2020)

Experiments:
[1] = system: A-549 (human pulmonary adenocarcinoma); assay: Inhibition of cell proliferation (MTT), A-549; type: cell-based; settings: IC50 (HEK-293)/IC50 (A-549)
Excerpt: (§1) The ability of the synthetic compounds to inhibit cell proliferation was established by means of their IC50 values towards the tumor cell lines HT-29 (human colon adenocarcinoma), MCF-7 (breast adenocarcinoma) and A-549 (human pulmonary adenocarcinoma), as well as towards the nontumor cell line HEK-293 (human embryonic kidney cells). Results for compounds derived from CA-4 are presented in Table 1, along with the calculated selectivity indexes SIA (for HT-29 cell line), SIB (for MCF-7 cell line) and SIc (for A-549 cell line), obtained by dividing the IC50 values of the nontumor cell line (HEK-293) by those of the corresponding tumor cell line. The higher the SI index, the higher the therapeutic safety margin.
Cell culture media were purchased from Gibco (Grand Island, NY, USA). Fetal bovine serum (FBS) was a product of Harlan-Seralab (Belton, U.K.). Supplements and other chemicals not listed in this section were obtained from Sigma Chemical Co. (St. Louis, MO, USA). Plastics for cell culture were supplied by Thermo Fischer Scientific Inc., Madrid, Spain. All tested compounds were dissolved in DMSO at a concentration of 10 μg/mL and stored at −20 °C until use. HT-29, MCF-7, A-549 and HEK-293 cell lines were maintained in a Dulbecco’s modified Eagle’s medium (DMEM) containing glucose (1 g/L), glutamine (2 mM), penicillin (50 IU/mL), streptomycin (50 μg/mL) and amphotericin B (1.25 μg/mL), supplemented with 10% FBS. Cells from human non-small lung carcinoma (clone A549; ATCC n°: CCL2, MD, USA) were routinely grown at 37 °C in a humidified atmosphere of 5% CO2. Cells were maintained in a standard medium composed of RPMI 1640 (Lonza, Group Ltd., Basel, Switzerland), supplemented with 10% fetal bovine serum (FBS), 2 mM L-glutamine and 1% penicillin and streptomycin (Invitrogen). Cells were free from mycoplasma as determined by MycoAlert tests (Lonza, Group Ltd., Basel, Switzerland). […]

[2] = system: HT-29 (human colon adenocarcinoma); assay: Inhibition of cell proliferation (MTT), HT-29; type: cell-based; settings: IC50 (HEK-293)/IC50 (HT-29)
Excerpt: as §1
(§2) Cell culture media were purchased from Gibco (Grand Island, NY, USA). Fetal bovine serum (FBS) was a product of Harlan-Seralab (Belton, U.K.). Supplements and other chemicals not listed in this section were obtained from Sigma Chemical Co. (St. Louis, MO, USA). Plastics for cell culture were supplied by Thermo Fischer Scientific Inc., Madrid, Spain. All tested compounds were dissolved in DMSO at a concentration of 10 μg/mL and stored at −20 °C until use. HT-29, MCF-7, A-549 and HEK-293 cell lines were maintained in a Dulbecco’s modified Eagle’s medium (DMEM) containing glucose (1 g/L), glutamine (2 mM), penicillin (50 IU/mL), streptomycin (50 μg/mL) and amphotericin B (1.25 μg/mL), supplemented with 10% FBS. Cells from human non-small lung carcinoma (clone A549; ATCC n°: CCL2, MD, USA) were routinely grown at 37 °C in a humidified atmosphere of 5% CO2. Cells were maintained in a standard medium composed of RPMI 1640 (Lonza, Group Ltd., Basel, Switzerland), supplemented with 10% fetal bovine serum (FBS), 2 mM L-glutamine and 1% penicillin and streptomycin (Invitrogen). Cells were free from mycoplasma as determined by MycoAlert tests (Lonza, Group Ltd., Basel, Switzerland).
(§3) A total of 5 × 10^3 HT-29, MCF-7 or HEK-293 cells in a total volume of 100 μL of their respective growth media were incubated with serial dilutions of the tested compounds. The 3-(4,5-dimethylthiazol-2-yl)-2,5-diphenyltetrazolium bromide (MTT; Sigma Chemical Co.) dye reduction assay in a 96-well microplate was used, as previously described. […] The resulting formazan was dissolved in 150 μL of 0.04 N HCl/2-propanol and read at 550 nm. All determinations were carried out in triplicate.

[3] = system: MCF-7 (breast adenocarcinoma); assay: Inhibition of cell proliferation (MTT), MCF-7; type: cell-based, human; settings: IC50 (HEK-293)/IC50 (MCF-7)
Excerpt: as §1, §2, §3

Row | Structure (SMILES) | SIc ([1]; Table 1) | SIc ([1]; Table 2) | SIA ([2]; Table 1) | SIB ([3]; Table 1) | SIA ([2]; Table 2) | SIB ([3]; Table 2) | SIA ([2]; Table 1, listed as 6.25)
1 | COc1ccc(/C=C\c2cc(OC)c(OC)c(OC)c2)cc1O [CA-4, combretastatin A-4] | 58 | 60 | 5.9 | 25 |  |  | 
2 | COc1ccc(/C=C\c2cc(OC)c(OC)c(OC)c2)cc1NC(=O)[C@H](NC(=O)OCC1c2ccccc2-c2ccccc21)C(C)C [Compound 9.1] |  | 0.7 |  |  | 0.9 | 1.1 | 
3 | COc1ccc(/C=C\c2cc(OC)c(OC)c(OC)c2)cc1NC(=O)[C@H](N)CC(C)C [Compound 10.2] |  | 2.7 |  |  | 0.4 | 0.2 | 
4 | COc1ccc(/C=C\c2cc(OC)c(OC)c(OC)c2)cc1NC(=O)[C@H](N)Cc1ccccc1 [Compound 10.3] |  | 1.2 |  |  | 0.9 | 1.8 | 
5 | COc1ccc(/C=C\c2cc(OC)c(OC)c(OC)c2)cc1OCC(=O)N[C@@H](CO)C(=O)O [Compound 4.6] | 0.5 |  | 0.4 | 0.6 |  |  | 
6 | COc1ccc(/C=C\c2cc(OC)c(OC)c(OC)c2)cc1NC(=O)[C@H]1CCCN1C(=O)OCC1c2ccccc2-c2ccccc21 [Compound 9.4] |  | 0.2 |  |  | 0.6 | 0.6 | 
7 | COc1ccc(/C=C\c2cc(OC)c(OC)c(OC)c2)cc1NC(=O)[C@H](N)C(C)C [Compound 10.1] |  | 0.2 |  |  | 0.5 | 0.5 | 
8 | COc1ccc(/C=C\c2cc(OC)c(OC)c(OC)c2)cc1NC(=O)[C@H]1CCCN1 [Compound 10.4] |  | 0.4 |  |  | 0.7 | 5.0 | 
9 | COc1ccc(/C=C\c2cc(OC)c(OC)c(OC)c2)cc1OCC(=O)N[C@@H](CC(C)C)C(=O)O [Compound 4.3] | 0.6 |  | 0.6 | 0.6 |  |  | 
10 | COc1ccc(/C=C\c2cc(OC)c(OC)c(OC)c2)cc1OCC(=O)N[C@@H](Cc1ccccc1)C(=O)O [Compound 4.4] | 0.5 |  | 0.9 | 1.0 |  |  | 
11 | COc1ccc(/C=C\c2cc(OC)c(OC)c(OC)c2)cc1N [AmCA-4, 3′-aminocombretastatin A-4] |  | 0.06 |  |  | 0.3 | 0.9 | 
12 | COC(=O)[C@H](Cc1ccccc1)NC(=O)COc1cc(/C=C\c2cc(OC)c(OC)c(OC)c2)ccc1OC [Compound 3.4] | 0.4 |  | 0.14 | 0.5 |  |  | 
13 | COc1ccc(/C=C\c2cc(OC)c(OC)c(OC)c2)cc1NC(=O)[C@@H]1CCCN1C(=O)OCC1c2ccccc2-c2ccccc21 [Compound 7.6] |  | 0.1 |  |  | 0.4 | 2.2 | 
14 | COc1ccc(/C=C\c2cc(OC)c(OC)c(OC)c2)cc1NC(=O)CNC(=O)OCC1c2ccccc2-c2ccccc21 [Compound 7.1] |  | 0.02 |  |  | 0.5 | 0.7 | 
15 | COc1ccc(/C=C\c2cc(OC)c(OC)c(OC)c2)cc1OCC(=O)O [Compound 2, (Z)-2-(2-Methoxy-5-(3,4,5-trimethoxystyryl)phenoxy)acetic acid] | 0.3 |  | 0.4 | 1.1 |  |  | 
16 | COC(=O)[C@@H](NC(=O)COc1cc(/C=C\c2cc(OC)c(OC)c(OC)c2)ccc1OC)C(C)C [Compound 3.2] | 0.2 |  | 0.2 | 0.4 |  |  | 
17 | COc1ccc(/C=C\c2cc(OC)c(OC)c(OC)c2)cc1OCC(=O)N[C@H](CO)C(=O)O [Compound 6.5] | <0.09 |  | 1.1 | 1.2 |  |  | greater than 1
18 | COC(=O)[C@H](CCSC)NC(=O)COc1cc(/C=C\c2cc(OC)c(OC)c(OC)c2)ccc1OC [Compound 3.9] | 0.9 |  | 0.5 | 0.8 |  |  | 
19 | COc1ccc(/C=C\c2cc(OC)c(OC)c(OC)c2)cc1NC(=O)[C@H](Cc1ccccc1)NC(=O)OCC1c2ccccc2-c2ccccc21 [Compound 7.5] |  | 0.01 |  |  | 0.3 | 0.2 | 
20 | COc1ccc(/C=C\c2cc(OC)c(OC)c(OC)c2)cc1OCC(=O)N[C@@H](C(=O)O)C(C)C [Compound 6.1] | 0.7 |  | 0.9 | 0.8 |  |  | 
21 | COc1ccc(/C=C\c2cc(OC)c(OC)c(OC)c2)cc1NC(=O)[C@@H](NC(=O)OCC1c2ccccc2-c2ccccc21)C(C)C [Compound 7.3] |  | 0.07 |  |  | 0.5 | 0.6 | 
